# Data as given in paper PMC11850723.
# No constants are given. Whether binding was seen depends on the method and setting. Binding seen in cells or lysates may run through a third protein. Some binding calls cover weakened binding; strength is not graded here.
# T1: Tim17 (S. cerevisiae (endogenous in YPH499 mitochondria)) (UniProt P39515)
# T1 sequence: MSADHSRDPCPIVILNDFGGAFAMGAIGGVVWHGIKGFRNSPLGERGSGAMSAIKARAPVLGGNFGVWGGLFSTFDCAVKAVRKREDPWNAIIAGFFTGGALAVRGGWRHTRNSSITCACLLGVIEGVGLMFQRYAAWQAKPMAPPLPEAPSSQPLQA
# T2: Dbi1 (disulfide bond formation in inner membrane proteins), protein encoded by ORF YDL157c (S. cerevisiae (endogenous in YPH499 mitochondria)) (UniProt Q12082)
# T2 sequence: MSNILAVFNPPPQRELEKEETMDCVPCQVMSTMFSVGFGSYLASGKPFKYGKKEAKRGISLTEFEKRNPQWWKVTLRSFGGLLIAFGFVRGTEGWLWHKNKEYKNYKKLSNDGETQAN
# B1: Dbi1 (disulfide bond formation in inner membrane proteins), protein encoded by ORF YDL157c (protein, UniProt Q12082 1-118)
# chain: T2 sequence
# B2: Tim17 (protein, UniProt P39515 1-158)
# chain: T1 sequence
# How the values were obtained:
# [1] = target: T1, Tim17 (S. cerevisiae (endogenous in YPH499 mitochondria)); assay: co-IP; isolated mitochondria solubilized in 1% digitonin (20 mM Tris-HCl, 80 mM KCl, 10% glycerol, 5 mM EDTA, pH 8.0), 4 °C; affinity-purified antibodies prebound to Protein A-Sepharose; western blotting; wild type, tim23G112L, Tim23-depleted and tim17C10S/C77S mitochondria
# [2] = target: T2, Dbi1 (disulfide bond formation in inner membrane proteins), protein encoded by ORF YDL157c (S. cerevisiae (endogenous in YPH499 mitochondria)); assay: as above
Binder,binding [1],binding [2]
B1,binds,
B2,,binds
